Data from publication PMC10201418.
Results are given in words; binding and its absence hold for the method and conditions named. For some of these results: In cells and extracts the contact can be indirect. Some binding calls cover weakened binding; strength is not graded here. Tags and fused reporters may be left off the sequences shown.

By UniProt entry, the sequences of proteins in these tests, tags left out.
UniProt P68400: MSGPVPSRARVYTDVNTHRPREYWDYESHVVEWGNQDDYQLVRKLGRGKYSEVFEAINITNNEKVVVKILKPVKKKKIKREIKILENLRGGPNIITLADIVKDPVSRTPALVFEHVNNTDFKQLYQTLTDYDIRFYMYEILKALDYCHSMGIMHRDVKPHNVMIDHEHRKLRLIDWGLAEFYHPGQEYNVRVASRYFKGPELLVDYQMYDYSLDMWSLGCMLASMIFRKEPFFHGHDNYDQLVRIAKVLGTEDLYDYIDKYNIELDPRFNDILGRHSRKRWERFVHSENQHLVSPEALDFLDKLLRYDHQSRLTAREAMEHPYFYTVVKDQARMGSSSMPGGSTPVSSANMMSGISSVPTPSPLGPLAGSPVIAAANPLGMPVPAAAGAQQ
UniProt P67870: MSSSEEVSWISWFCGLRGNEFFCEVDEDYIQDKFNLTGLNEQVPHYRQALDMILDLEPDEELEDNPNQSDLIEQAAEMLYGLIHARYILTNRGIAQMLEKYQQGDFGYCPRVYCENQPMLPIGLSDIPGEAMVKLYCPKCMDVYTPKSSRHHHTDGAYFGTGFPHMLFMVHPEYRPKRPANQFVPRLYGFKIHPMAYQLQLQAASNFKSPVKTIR

What was measured:
[1] = molecular target: T1, IRF1 tagged with a C-terminal FLAG epitope (IRF1-FLAG) (UniProt P10914); assay: co-IP
T1 sequence: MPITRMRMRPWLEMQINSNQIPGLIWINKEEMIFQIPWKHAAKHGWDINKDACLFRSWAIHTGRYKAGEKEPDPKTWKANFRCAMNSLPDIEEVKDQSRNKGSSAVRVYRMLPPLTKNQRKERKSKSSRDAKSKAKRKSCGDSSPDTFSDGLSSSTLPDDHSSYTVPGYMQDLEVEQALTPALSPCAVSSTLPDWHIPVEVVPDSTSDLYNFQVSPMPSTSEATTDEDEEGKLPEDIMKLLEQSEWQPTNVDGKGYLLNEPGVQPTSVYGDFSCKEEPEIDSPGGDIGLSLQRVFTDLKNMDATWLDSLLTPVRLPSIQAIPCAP

[2] = molecular target: T1, IRF1 tagged with a C-terminal FLAG epitope (IRF1-FLAG); assay: pull-down; in vitro pull-down with purified IRF1-FLAG and recombinant human CSNK2B; who was held and the conditions are not stated; both purified

Substance | binding [1] | binding [2]
CSNK2A2, catalytic alpha-subunit of casein kinase 2 (endogenous) (from UniProt P19784 1-350) | binds | –
CSNK2A1, catalytic alpha-subunit of casein kinase 2 (endogenous) (from UniProt P68400 1-391) | binds | –
CSNK2B, regulatory subunit of casein kinase 2 (endogenous) (from UniProt P67870 1-215) | binds | –
recombinant human CSNK2B (rCSNK2B) (from UniProt P67870 1-215) | – | binds
